From PMC9977495 come the findings set out here.

The target of the test is T1, GST-ICAT (inhibitor of catenin and T cell factor [TCF]) (UniProt Q9NSA3).
T1 sequence: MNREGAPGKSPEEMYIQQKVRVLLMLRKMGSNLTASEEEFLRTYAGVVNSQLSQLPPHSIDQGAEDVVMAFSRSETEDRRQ
The test is described as follows: pull-down; 1000 ug lysate of rat AT2 cells (plated at three densities; infected with adenovirus for GFP, WNT3A or WNT5A, lysed after 72 h) with 20 ug GST-ICAT and glutathione-sepharose beads, rocked at 4°C for 2 hours; beads washed with 0.1% triton buffer; immunoblot; only the target purified.

These are yes or no findings as the source states them, for the method shown. In cells and extracts the contact can be indirect. Some binding calls cover weakened binding; strength is not graded here. Sequences can lack the tags named with a protein.

B1: β-catenin (protein, UniProt Q9WU82 1-781)
chain: MATQADLMELDMAMEPDRKAAVSHWQQQSYLDSGIHSGATTTAPSLSGKGNPEEEDVDTSQVLYEWEQGFSQSFTQEQVADIDGQYAMTRAQRVRAAMFPETLDEGMQIPSTQFDAAHPTNVQRLAEPSQMLKHAVVNLINYQDDAELATRAIPELTKLLNDEDQVVVNKAAVMVHQLSKKEASRHAIMRSPQMVSAIVRTMQNTNDVETARCTAGTLHNLSHHREGLLAIFKSGGIPALVKMLGSPVDSVLFYAITTLHNLLLHQEGAKMAVRLAGGLQKMVALLNKTNVKFLAITTDCLQILAYGNQESKLIILASGGPQALVNIMRTYTYEKLLWTTSRVLKVLSVCSSNKPAIVEAGGMQALGPHLTDPSQRLVQNCLWTLRNLSDAATKQEGMEGLLGTLVQLLGSDDINVVTCAAGILSNLTCNNYKNKMMVCQVGGIEALVRTVLRAGDREDITEPAICALRHLTSRHQEAEMAQNAVRLHYGLPVVVKLLHPPSHWPLIKATVGLIRNLALCPANHAPLREQGAIPRLVQLLVRAHQDTQRRTSMGGTQQQFVEGVRMEEIVEGCTGALHILARDVHNRIVIRGLNTIPLFVQLLYSPIENIQRVAAGVLCELAQDKEAAEAIEAEGATAPLTELLHSRNEGVATYAAAVLFRMSEDKPQDYKKRLSVELTSSLFRTEPMAWNETADLGLDIGAQGEALGYRQDDPSYRSFHSGGYGQDALGMDPMMEHEMGGHHPGADYPVDGLPDLGHAQDLMDGLPPGDSNQLAWFDTDL
Turning to B1, the binding entry is reported as “binds”.
